Results are given in words; binding and its absence hold for the method and conditions named. Some binding calls cover weakened binding; strength is not graded here.

Amino acid sequences for entries named in this document (tags omitted). Residues count along the entry.
UniProt Q86Y34, residues 21-549: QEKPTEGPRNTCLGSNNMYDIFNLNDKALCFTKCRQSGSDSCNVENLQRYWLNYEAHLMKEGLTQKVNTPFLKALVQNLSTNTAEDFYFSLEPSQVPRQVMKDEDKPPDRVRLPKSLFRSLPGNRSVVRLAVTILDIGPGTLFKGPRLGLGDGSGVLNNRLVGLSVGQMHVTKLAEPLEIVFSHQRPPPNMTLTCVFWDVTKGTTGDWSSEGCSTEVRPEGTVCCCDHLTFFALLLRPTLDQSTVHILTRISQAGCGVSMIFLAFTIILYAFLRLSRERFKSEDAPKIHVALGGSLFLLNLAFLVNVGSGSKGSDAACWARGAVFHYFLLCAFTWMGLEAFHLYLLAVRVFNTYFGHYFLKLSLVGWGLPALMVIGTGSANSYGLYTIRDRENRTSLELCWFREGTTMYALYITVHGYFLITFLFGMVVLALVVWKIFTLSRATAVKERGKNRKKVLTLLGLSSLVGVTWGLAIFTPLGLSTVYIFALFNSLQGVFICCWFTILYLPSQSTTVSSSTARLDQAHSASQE

In test [1] the target is GPR97-TM7-EGFP expressed in FACS-sorted HEK-293T cells (human) (UniProt Q86Y34). Put plainly: flow cytometry on cells; FACS-based PR3-binding assay: HEK-293T transfectants (unsorted, or FACS-sorted by GFP level) incubated with purified PR3 5 μg/mL, 1 h, 4 °C; bound PR3 detected with anti-PR3 mAb; only the binder purified. On the technique in general: In flow cytometry, cells or beads pass a laser one at a time.

The target of test [2] is GPR97 expressed in HEK-293T cells (unsorted transfectants and co-expression experiments) (human) (UniProt Q86Y34). The test is described as above.

B1: Human proteinase 3 (PR3), purified (enzyme, UniProt P24158 28-248)
chain: IVGGHEAQPHSRPYMASLQMRGNPGSHFCGGTLIHPSFVLTAAHCLRDIPQRLVNVVLGAHNVRTQEPTQQHFSVAQVFLNNYDAENKLNDVLLIQLSSPANLSASVATVQLPQQDQPVPHGTQCLAMGWGRVGAHDPPAQVLQELNVTVVTFFCRPHNICTFVPRRKAGICFGDSGGPLICDGIIQGIDSFVIWGCATRLFPDFFTRVALYVDWIRSTLR
For B1, the binding entry in test [1] and in test [2] was “binds” each time.
